# Source: PubChem BioAssay AID2685 (National Center for Advancing Translational Sciences (NCATS), 2010)
# This is one part of the list. Shown are side measurements of this screen, not its main read-out; they come without a call. Most of these compounds were active or inconclusive in the main read-out, so they are no random draw. The note in brackets gives the kind of curve behind each potency; many fits are weak.
# Assay: qHTS Assay for Lipid Storage Modulators in Drosophila S3 Cells;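 on cell number change: cells counted by Cell Tracker Red CMTPX staining in the red channel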
# Conditions: BODIPY lipid droplet fluorescence, 18-24 h; for cell number change: measured here: cell count max response, cells fed with added oleic acid
# Method in brief: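 Drosophila S3 cells loaded with oleic acid (400 uM, as added) and compounds at several concentrations; lipid droplets imaged by 488-nm laser-scanning cytometry, 500–530 nm intensity and object ratio to cell channel. Percent activity normalized to 20 uM Triacsin C.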
# [1] = measured here: cell number channel AC50, cells fed with added oleic acid
# [2] = measured here: lipid fluorescence (Fed channel) AC50, cells fed with added oleic acid
SMILES,cell number change [%],AC50 [1],AC50 [2]
Cc1nc2cc(NC(=O)N(C)c3ccc4ccccc4c3)ccc2o1,30.2,"3.66 µM [rising, single point]",–
O=C1NCCCc2c1oc1cc(Br)c(O)c(Br)c21,-42.4,"5.17 µM [falling, full curve]",–
O=C(Nc1cccc(C(F)(F)F)c1)Nc1ccc(N2CCCC2)c(S(=O)(=O)Nc2ccccc2Cl)c1,-88.5,"23.1 µM [falling, partial curve]","5.17 µM [falling, full curve]"
O=C(NCc1ccco1)C1CCCN1C(=O)NCc1ccccc1 (stereo not drawn),-4.95,–,"29.1 µM [rising, single point]"
CC(C)NS(=O)(=O)c1ccc(NC(=O)C(C)OC(=O)CCC(=O)c2cccs2)cc1 (stereo not drawn),-30.9,"29.1 µM [falling, single point]","29.1 µM [falling, single point]"
CC(C)C[C@H](NC(=O)N1CCn2c1nc1ccccc12)C(=O)NCc1ccc2c(c1)OCO2,-12.2,–,"29.1 µM [falling, single point]"
O=c1cc(CN2CCN(S(=O)(=O)c3ccccc3)CC2)nc2sccn12,-17.8,–,"25.9 µM [falling, partial curve, poor fit]"
CN1CCN(c2cc3c(c4c2[nH]c2ccccc24)C(=O)CC(C)(C)C3)CC1,-36.1,"29.1 µM [falling, partial curve]","5.8 µM [falling, partial curve, poor fit]"
CCCCC(=O)N1CCN(c2nc3ccc(OCC)cc3s2)CC1,-9.07,–,–
CCOC(=O)Cn1c(=O)n(C2CCCC2)c(=O)c2ccccc21,-6.12,–,–
CCCc1cc(=O)[nH]c(SCC(=O)Nc2sc3c(c2C#N)CCCC3)n1,2.68,–,"29.1 µM [rising, single point]"
c1cncc(C(c2nnnn2C2CCCC2)N2CCN(Cc3ccc4c(c3)OCO4)CC2)c1 (stereo not drawn),–,–,"0.259 µM [rising, full curve, poor fit]"
O=C(CSc1nc2cc(Cl)ccc2s1)NCc1ccc2c(c1)OCO2,-20.4,–,"32.6 µM [falling, single point]"
COc1ccc(CNC(=O)Cn2c(=O)n(CCC(=O)N3CCCCC3)c(=O)c3sccc32)cc1,13.8,–,–
Cc1nn(-c2ccccc2)nc1CNC(=O)c1ncoc1-c1ccccc1,18.1,"2.06 µM [falling, single point]","3.66 µM [falling, single point]"
COc1cccc(CN2CCN(Cc3cc(OC)c(OC)c(OC)c3)CC2)c1OC,-15.1,–,"20.6 µM [rising, single point]"
CC(=O)c1cnc2c(-c3cccc(Br)c3)cnn2c1C,12.7,–,"0.231 µM [rising, full curve]"
Cc1ccccc1OCc1nnc(SCc2cc(=O)[nH]c3ccccc23)o1,–,"6.51 µM [rising, single point]","6.51 µM [rising, single point]"
O=C(CCC(=O)c1cccs1)OCC(=O)c1ccc(Cl)s1,2.4,–,"6.51 µM [rising, full curve]"
Cc1cccc2nc3c(nc12)-c1ccccc1C3=O,27.4,–,"0.231 µM [rising, full curve]"

# Copied from the list.
# `Cc1cccc2nc3c(nc12)-c1ccccc1C3=O` – AC50 [2]: 0.231 µM [rising, full curve]
# `Cc1nn(-c2ccccc2)nc1CNC(=O)c1ncoc1-c1ccccc1` – AC50 [1]: 2.06 µM [falling, single point]

# Later entries:

SMILES,cell number change [%],AC50 [1],AC50 [2]
CCc1cccc(NC(=O)CCc2nc(-c3cccs3)no2)c1,-1.59,–,"1.84 µM [falling, partial curve, poor fit]"
Cc1ccc(C(=O)NCC(=O)OCN2C(=O)c3ccccc3C2=O)cc1C,12.4,–,"4.61 µM [rising, partial curve, poor fit]"
CCOC(=O)Cn1cnc2sc3c(c2c1=O)CCC3,-166,"23.1 µM [falling, partial curve]","29.1 µM [falling, single point]"
CCc1cccc(NC(=O)CN(c2ccc(C)cc2)S(=O)(=O)c2c(C)noc2C)c1,5.65,–,"29.1 µM [falling, single point]"
CC1CCc2c(C(=O)Oc3cccc(-n4cnnn4)c3)csc2C1 (stereo not drawn),-3.14,–,"0.259 µM [falling, full curve]"
CCOCC(=O)Nc1c(C(=O)Nc2ccccc2OC)oc2ccccc12,-19.1,–,–
COc1ccc(C)cc1-n1c(SCC(=O)Nc2cc(C)on2)nc2sc(C)c(C)c2c1=O,-4.41,–,"3.66 µM [rising, full curve, poor fit]"
Cc1ccc(S(=O)(=O)N2CC(=O)Nc3ccccc32)cc1C,19.1,–,"13 µM [rising, single point]"
Cc1ccc(-c2csc(NC(=O)c3cnccn3)n2)cc1C,140,"29.1 µM [rising, single point]",–
O=S(=O)(NCc1ccncc1)c1ccccc1,–,"0.517 µM [falling, partial curve, poor fit]","2.31 µM [falling, partial curve]"
O=C(COC(=O)c1ccccc1NCCO)NCCC1=CCCCC1,-3.5,–,–
Cc1ccsc1CN(C)C(=O)c1cc(S(=O)(=O)N2CCOCC2)ccc1N1CCCC1,10.4,–,"0.164 µM [falling, full curve, poor fit]"
COC(=O)c1nn(-c2ccc(OC)cc2)c(=O)cc1Sc1ccc(C)cc1,-24.4,"0.326 µM [rising, single point]",–
Cn1nc(C(=O)NC2CCCCC2)c2c1-c1ccccc1SC2,14.4,"0.00461 µM [rising, full curve, poor fit]","29.1 µM [rising, single point]"
COc1ccc(N2CC(C(=O)Nc3nc(-c4ccccc4)c(C(C)=O)s3)CC2=O)c(OC)c1 (stereo not drawn),21.2,–,–
O=C(O)c1cc2nc(-c3cccs3)cc(C(F)(F)F)n2n1,-14.5,"4.61 µM [rising, single point]","0.00731 µM [falling, full curve, poor fit]"
CCOc1ccc(N/C=C/C(=O)c2ccc3ccccc3c2)c([N+](=O)[O-])c1,28.8,–,"0.13 µM [rising, full curve, poor fit]"
Cc1ccc(N2CC(NC(=O)N3CCN(C(=O)c4ccco4)CC3)CC2=O)cc1 (stereo not drawn),8.86,–,"20.6 µM [falling, single point]"
CC(=O)c1cccc(NC(=O)CCNS(=O)(=O)c2cccc3nsnc23)c1,37.3,"29.1 µM [rising, single point]","23.1 µM [rising, partial curve]"
COc1ccc(/C=C(\C#N)C(=O)NCc2cccs2)cc1OC,5.99,–,"1.46 µM [falling, partial curve]"

SMILES,cell number change [%],AC50 [1],AC50 [2]
COc1ccc(/C=C/c2nc(C#N)c(NCCN(C)C)o2)cc1OC,1.55,–,"0.00411 µM [rising, full curve, poor fit]"
CCN(CC)CCN1C(=O)C2C3c4ccccc4C(c4ccccc43)C2C1=O (stereo not drawn),-28.2,–,"4.11 µM [falling, full curve]"
CN1CCc2c(sc3nc(NN)n(Cc4ccccc4)c(=O)c23)C1,–,–,"0.082 µM [rising, full curve]"
COc1ccc(C(=O)N2CCN(Cc3ccc4c(c3)OCO4)CC2)cc1OC,-18.4,–,"20.6 µM [falling, single point]"
COc1ccc(C2CC(c3cccs3)=NN2C(=O)CSc2nncn2C)cc1OC (stereo not drawn),-3.17,"4.61 µM [rising, single point]","3.66 µM [rising, single point]"
Cc1cc(CN2CCCCC2)oc1C(=O)O,-22.2,–,"0.651 µM [falling, partial curve, poor fit]"
C=CCN=C1NN=C(c2cc(C)n(CCOC)c2C)CS1,24.1,–,"0.326 µM [falling, partial curve, poor fit]"
Cc1c(C(=O)Nc2ccccc2)sc2ncn(CC(=O)N3CCCCC3)c(=O)c12,-0.435,–,"0.58 µM [falling, single point]"
COCc1cc(C)nc(SCC[N+](C)(C)CC(=O)Nc2cccc(C(F)(F)F)c2)c1C#N,-48.5,"0.00517 µM [falling, full curve, poor fit]","3.66 µM [falling, full curve]"
CC(C)N1CC(O)=C(c2ccccc2)C1=N,-7.45,–,"0.0116 µM [falling, full curve]"
COc1ccc(C(=O)Nc2ccc(N3CCCC3)cc2)cc1OC,-24.3,–,–
COc1ccc(C(=O)NC(=S)NCc2cccnc2)cc1[N+](=O)[O-],10.4,–,"6.51 µM [rising, full curve, poor fit]"
Nc1ncnc2c1ncn2C1CCC(CO)C(O)C1 (stereo not drawn),-33.4,"0.206 µM [falling, full curve]","4.11 µM [falling, full curve]"
O=C(Cn1cc(C(F)(F)F)ccc1=O)NCc1ccc(F)cc1,-1.9,"0.103 µM [falling, partial curve, poor fit]",–
Cc1ccc(S(=O)(=O)Cn2nnnc2C(C)N2CCN(C(=O)c3ccco3)CC2)cc1 (stereo not drawn),-10.4,–,–
CCOC(=O)C1CCN(CC(O)COCc2ccc(Cl)cc2)CC1 (stereo not drawn),–,–,"23.1 µM [falling, single point]"
O=C(Nc1ccncc1)C1CCN(S(=O)(=O)c2ccc(Cl)c(C(F)(F)F)c2)CC1,–,–,"11.6 µM [falling, partial curve, poor fit]"
COc1cc(NC(=O)CCc2nnc3ccc(N4CCCCC4)nn23)cc(OC)c1OC,-28.3,–,"29.1 µM [falling, single point]"
O=S(=O)(NCCCc1ccccc1)c1ccc(Cl)cc1,-31.6,"10.3 µM [falling, partial curve, poor fit]","11.6 µM [falling, partial curve, poor fit]"

# Entries of single compounds from above.
# O=C(Nc1ccncc1)C1CCN(S(=O)(=O)c2ccc(Cl)c(C(F)(F)F)c2)CC1 as listed: AC50 [2]: 11.6 µM [falling, partial curve, poor fit]
# Cc1cc(CN2CCCCC2)oc1C(=O)O as listed: cell number change [%]: -22.2; AC50 [2]: 0.651 µM [falling, partial curve, poor fit]
